{
  "source": "PubChem BioAssay AID1347076",
  "about": "(National Center for Advancing Translational Sciences (NCATS), 2019)",
  "note": "In all, about 400,000 compounds went through this assay and about 13,000 (3.2%) were called active. This list was built around the results that the source calls inconclusive (neither active nor inactive); the mix of calls is not that of the screen. Calls follow the shape of the dose curve; as a rule, active = well fitted cell-killing curve with a large enough effect; inconclusive = small, poorly fitted or top-dose-only effect, or effect the other way; inactive = flat fitted curve, though single readings scatter. Potencies beside an inconclusive call are fits to weak or partial responses and may not hold up. % is scaled to controls: 0 for no effect and ±100 for the full control effect; potency is read from the fitted curve at half-maximal effect.",
  "data": [
    {"assay": "qHTS assay for MDR1-selective chemotherapeutics: Primary screen using the drug-selected MDR subline cells KB-V1; also: nearly all actives have a fitted effect of over 60% in size", "conditions": "KB-V1 MDR cells viability, CellTiter-Glo, 72 h; activity change, negative = cytotoxicity: at 46.1 µM (top of the series)", "procedure,_shortened": "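In this primary screen, KB-V1 cells overexpressing P-gp are incubated with library compounds (lowest to highest concentration) for 72 h at 37 degrees C before a luminescent ATP viability read.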", "values": [
      {"compound": "C[C@H]1CN=C(N(C)C)N1CCc1ccccc1", "Potency": "inconclusive: 23.1 µM [rising, single point]"},
      {"compound": "CCOCCCNC(=O)C(c1ccc(C)cc1)N(Cc1ccc2c(c1)OCO2)C(=O)c1ccccn1", "note": "(stereo not given)", "Potency": "inconclusive: 5.17 µM [cytotoxic, partial curve]"},
      {"compound": "CN(CC(=O)Nc1cccc(Cl)c1)S(=O)(=O)c1ccc2[nH]c3c(c2c1)CCCC3", "activity change, negative = cytotoxicity": "inactive: 14%"},
      {"compound": "CCn1c(=O)c2sccc2n(Cc2cccc(C)c2)c1=O", "Potency": "inconclusive: 29.1 µM [cytotoxic, single point]"},
      {"compound": "Cc1ccc(C)c(SCC(=O)NC(=O)Nc2ccc3c(c2)OCCO3)c1", "activity change, negative = cytotoxicity": "inactive: 0%"},
      {"compound": "COc1ccccc1CNC(=O)CCCCn1c(=O)c2ccccc2n(Cc2c(C)cc(C)cc2C)c1=O", "Potency": "inconclusive: 29.1 µM [rising, single point]"},
      {"compound": "CCOC(=O)C(C)N1N=C(/C=C/c2ccc(C)cc2)CCC1=O", "note": "(stereo not given)", "Potency": "active: 16.4 µM"},
      {"compound": "COc1ccc(CNC(=O)Cn2c(=O)oc3cc(S(=O)(=O)N4CCCCCC4)ccc32)cc1", "Potency": "inconclusive: 23.1 µM [cytotoxic, partial curve]"},
      {"compound": "CCn1cc(C(=O)OCC(=O)N(C)Cc2ccccc2)c(=O)c2ccc(C)nc21", "Potency": "inconclusive: 16.4 µM [cytotoxic, partial curve]"},
      {"compound": "COc1ccc(N2CCN(C(=O)CCc3c(C)nc4c(-c5ccccc5)c(C)nn4c3C)CC2)cc1", "Potency": "inconclusive: 0.461 µM [rising, full curve, poor fit]"},
      {"compound": "CC(C)CN1C(=O)c2ccc(C(=O)Nc3ccc(OCC(=O)O)cc3)cc2C1=O", "activity change, negative = cytotoxicity": "inactive: 3.75%"},
      {"compound": "CN(Cc1ccc(OC(F)F)cc1)C(=O)/C=C/c1ccc(S(=O)(=O)N2CCOCC2)cc1", "activity change, negative = cytotoxicity": "inactive: -1.81%"},
      {"compound": "Cc1ccc(N(C)S(=O)(=O)c2cccc(C(=O)NC3CC(C)(C)NC(C)(C)C3)c2)cc1", "activity change, negative = cytotoxicity": "inactive: 11%"},
      {"compound": "O=C(Nc1ccc(OCc2ccccc2)cc1)Nc1cccnc1", "Potency": "inconclusive: 18.4 µM [cytotoxic, partial curve]"},
      {"compound": "CCOc1ccc(S(=O)(=O)N(CC(=O)Nc2cccnc2)c2ccccc2)cc1", "Potency": "inconclusive: 7.31 µM [cytotoxic, partial curve]"},
      {"compound": "Cc1cc(C(=O)NNC(=S)NCc2ccccc2)no1", "Potency": "inconclusive: 20.6 µM [rising, single point]"},
      {"compound": "COc1ccc(NC(=O)c2ccc[n+]([O-])c2)cc1", "activity change, negative = cytotoxicity": "inactive: 0%"},
      {"compound": "Cc1c(C(=O)N(C)Cc2nc3ccccc3c(=O)[nH]2)oc2ccccc12", "Potency": "active: 8.2 µM"},
      {"compound": "Cc1cc(N2CCN(C)CC2)nc2ccc(NC(=O)Nc3ccccc3Br)cc12", "Potency": "inconclusive: 29.1 µM [cytotoxic, single point]"},
      {"compound": "CCCn1c(CNC(=O)c2ccccc2)nc2ccccc21", "Potency": "active: 23.1 µM"},
      {"compound": "Cc1ccc2cc(CCNS(=O)(=O)c3ccc(Br)cc3)c(=O)[nH]c2c1C", "Potency": "inconclusive: 29.1 µM [cytotoxic, single point]"},
      {"compound": "Cc1cc(C)n2nc(SCC(=O)Nc3cc(Cl)ccc3C)nc2n1", "Potency": "inconclusive: 10.3 µM [cytotoxic, partial curve]"},
      {"compound": "Cc1ccc(C(C)(C)NC(=O)C2CCC(=O)N(C3CCCCCC3)C2)cc1", "note": "(stereo not given)", "activity change, negative = cytotoxicity": "inactive: -4.69%"},
      {"compound": "COc1cc(/C=C2/CC/C(=C/c3ccc(O)c(OC)c3)C2=O)ccc1O", "Potency": "inconclusive: 29.1 µM [cytotoxic, single point]"},
      {"compound": "CCOC(=O)c1c(C)[nH]c(C(=O)COC(=O)CNC(=O)c2ccc(Cl)cc2)c1C", "Potency": "active: 4.11 µM"},
      {"compound": "CC(=O)c1c(C)[nH]c(C(=O)NCc2ccccc2F)c1C", "activity change, negative = cytotoxicity": "inactive: -28.9%"},
      {"compound": "CC1=C(C(N)=O)C(c2ccc(C(C)C)cc2)n2nc(SCc3ccccc3)nc2N1", "note": "(stereo not given)", "Potency": "inconclusive: 29.1 µM [rising, single point]"},
      {"compound": "Cc1cc(=O)oc2c(C)c(OC(C)C(=O)NCCCN3CCCC3=O)ccc12", "note": "(stereo not given)", "Potency": "inconclusive: 20.6 µM [rising, partial curve, poor fit]"},
      {"compound": "CC(C)N(C(=O)CSc1nnnn1C1CCCC1)C(C)C", "Potency": "active: 13 µM"},
      {"compound": "Clc1cccc2c1Sc1ccccc1CC2N1CCNCC1", "note": "(stereo not given)", "Potency": "inconclusive: 29.1 µM [cytotoxic, single point]"},
      {"compound": "CCOC(=O)[C@]12CCCC=C1N(Cc1ccco1)C(=O)[C@H](CC(=O)NCc1cccc3ccccc13)C2", "Potency": "inconclusive: 20.6 µM [cytotoxic, single point]"},
      {"compound": "COCCN1C=C(C(=O)OC)C(c2cc3c(cc2Br)OCO3)C(C(=O)OC)=C1", "activity change, negative = cytotoxicity": "inactive: 2.27%"},
      {"compound": "O=C(COc1ccc(F)cc1)c1c(O)cc(O)cc1O", "activity change, negative = cytotoxicity": "inactive: -9.13%"},
      {"compound": "Cc1cc(C)nc(NC2=NCCN2C(=S)Nc2ccc(C)c(C)c2)n1", "activity change, negative = cytotoxicity": "inactive: -15.1%"},
      {"compound": "Cn1c(=O)c2c(nc(C(O)c3ccccc3)n2C)n(C)c1=O", "note": "(stereo not given)", "Potency": "inconclusive: 23.1 µM [cytotoxic, single point]"},
      {"compound": "CC1(C)CC(=O)C=C(NCCN2CCN(C(=S)Nc3ccc(F)cc3)CC2)C1", "Potency": "inconclusive: 0.0651 µM [rising, full curve, poor fit]"},
      {"compound": "COc1ccc(CN(C)CC(=O)NC(C)c2ccccc2)c(OC)c1", "note": "(stereo not given)", "Potency": "inconclusive: 9.2 µM [cytotoxic, partial curve, poor fit]"},
      {"compound": "CCOC(=O)c1c(-c2ccccc2)oc2ccc(OCC(O)CN(C)C)cc12", "note": "(stereo not given)", "Potency": "inconclusive: 29.1 µM [cytotoxic, single point]"},
      {"compound": "CC(C)(C)n1nnnc1C(c1ccncc1)N(Cc1ccccc1)Cc1ccco1", "note": "(stereo not given)", "activity change, negative = cytotoxicity": "inconclusive: -39.7% [cytotoxic]"},
      {"compound": "COc1ccc(NC(=O)c2cc(C3CCCCN3C(=O)c3ccccc3)on2)c(C)c1", "note": "(stereo not given)", "activity change, negative = cytotoxicity": "inactive: 2.79%"},
      {"compound": "O=C(Cc1ccc(Cl)cc1)Nc1ccccc1Sc1ccccc1", "Potency": "active: 23.1 µM"},
      {"compound": "Cc1nn2c(-c3ccc(Cl)cc3Cl)nnc2s1", "activity change, negative = cytotoxicity": "inactive: -1.7%"},
      {"compound": "C=CCOC(=O)C1=C(C)OC(N)=C(C#N)C1c1ccc(OC)c(CSc2ccccn2)c1", "note": "(stereo not given)", "Potency": "inconclusive: 32.6 µM [rising, single point]"},
      {"compound": "CCCCCOc1ccc(NC(=O)c2cc(SC)ccc2Cl)cc1", "Potency": "inconclusive: 5.8 µM [cytotoxic, full curve]"},
      {"compound": "Cn1c(SCC(=O)N2CCCCC2)nc2c(c1=O)SCC2", "Potency": "inconclusive: 18.4 µM [cytotoxic, partial curve, poor fit]"},
      {"compound": "Cc1c(CNCCc2ccccc2Cl)c(C(=O)O)c(C)n1-c1ccccc1", "Potency": "inconclusive: 3.66 µM [rising, partial curve, poor fit]"},
      {"compound": "CCOc1cc(/C=C2\\SC(N3CCCCC3)=NC2=O)ccc1O", "Potency": "inconclusive: 5.8 µM [cytotoxic, full curve]"},
      {"compound": "COc1ccc(-c2nc3cc(C)ccn3c2NC(=O)c2c(F)cccc2Cl)cc1", "activity change, negative = cytotoxicity": "inactive: -23.9%"},
      {"compound": "C#Cc1cc(N2CCN(C(=O)c3ccoc3)CC2)n2nc(-c3cccc(Cl)c3)cc2n1", "Potency": "inconclusive: 20.6 µM [cytotoxic, single point]"},
      {"compound": "C=CCN1C(=O)S/C(=C\\c2ccc3c(c2)n(C)c(=O)n3C)C1=O", "Potency": "active: 18.4 µM"},
      {"compound": "CC(C)(C)c1ccc(-c2nc3cc(NC(=O)c4cc5ccccc5o4)ccc3o2)cc1", "activity change, negative = cytotoxicity": "inactive: 9.82%"},
      {"compound": "Cc1ccc(NC(=O)CCNC(=O)N2CC(=O)Nc3ccccc32)cc1Cl", "Potency": "inconclusive: 20.6 µM [rising, partial curve, poor fit]"},
      {"compound": "CCCCn1ccnc1C(=O)c1cccc(S(=O)(=O)N2CC(C)CC(C)C2)c1", "note": "(stereo not given)", "Potency": "inconclusive: 23.1 µM [cytotoxic, single point]"},
      {"compound": "CCOc1ccccc1C(=O)N1CCN(c2cccc(Cl)c2)CC1", "activity change, negative = cytotoxicity": "inactive: -3.95%"},
      {"compound": "O=C1/C(=C\\c2ccc(O)cc2)CCC1CNc1ccc(Cl)cc1", "note": "(stereo not given)", "Potency": "inconclusive: 29.1 µM [cytotoxic, single point]"},
      {"compound": "COc1ccc([C@H]2CC(=O)C[C@@H](CCn3cc(CC4CCCC4)nn3)O2)cc1", "Potency": "inconclusive: 13 µM [cytotoxic, single point]"},
      {"compound": "CCOc1ccc(CCN2C(=S)N([C@@H](CC(C)C)CN3CCC[C@@H]3CN3C(=S)NC[C@@H]3CC(C)C)C[C@@H]2CC(C)C)cc1", "activity change, negative = cytotoxicity": "inactive: -13.2%"},
      {"compound": "Cc1cc(C)c(S(=O)(=O)Nc2ccc[nH]c2=O)c(C)c1", "activity change, negative = cytotoxicity": "inactive: 3.38%"},
      {"compound": "Cc1oc(-c2cc(F)ccc2F)nc1CN1CCCN(C(=O)c2ccco2)CC1", "activity change, negative = cytotoxicity": "inactive: -0.395%"},
      {"compound": "COC(=O)c1ccsc1NC(=O)c1cccc(OC)c1", "Potency": "inconclusive: 9.2 µM [cytotoxic, partial curve]"},
      {"compound": "O=C(CSC1=Nc2ccccc2C2CC=NN12)Nc1ccc(F)c(F)c1F", "note": "(stereo not given)", "activity change, negative = cytotoxicity": "inactive: 12.7%"},
      {"compound": "C=CCn1c(SCC(=O)NCC)nnc1-c1cc2c(s1)CCC(CC)C2", "note": "(stereo not given)", "Potency": "inconclusive: 7.31 µM [cytotoxic, partial curve]"},
      {"compound": "O=C1Cc2cc(S(=O)(=O)Nc3ccc(N4CCOCC4)cc3)ccc2N1", "Potency": "inconclusive: 25.9 µM [rising, partial curve, poor fit]"},
      {"compound": "Clc1nccnc1N/N=C/c1ccc(Br)cc1", "activity change, negative = cytotoxicity": "inactive: -29.4%"},
      {"compound": "CC/C(=N\\NC(=S)Nc1ccc(OC)cc1)c1ccc(OC(F)F)cc1", "Potency": "inconclusive: 29.1 µM [cytotoxic, single point]"},
      {"compound": "C#CCOCCOCCOCCNc1nc(N2CCN(C(=O)CCCCCCCCCCNC(=O)[C@@H]([C@H](C)O)n3cc(C)nn3)CC2)nc(N2CCN(C(=O)CCCCCCCCCCNC(=O)[C@@H]([C@H](C)O)n3cc(C)nn3)CC2)n1", "activity change, negative = cytotoxicity": "inactive: 1.96%"},
      {"compound": "COc1ccc(Cl)cc1C(=O)NNC(=S)NC(=O)/C=C/c1ccco1", "Potency": "inconclusive: 6.51 µM [cytotoxic, partial curve, poor fit]"},
      {"compound": "COc1ccccc1C(=O)Nc1ccc(-c2nnn(CC(=O)NCc3ccco3)n2)cc1", "activity change, negative = cytotoxicity": "inactive: -0.244%"},
      {"compound": "CC(C)c1ccc(NC(=O)C2CCN(S(=O)(=O)c3cccc4nsnc34)CC2)cc1", "activity change, negative = cytotoxicity": "inactive: -1.6%"},
      {"compound": "CC1(C(=O)Nc2cccc(OC(F)(F)F)c2)Cc2c(-c3ccc(C(N)=O)cc3)ccnc2O1", "note": "(stereo not given)", "Potency": "inconclusive: 16.4 µM [cytotoxic, single point]"}
    ]}
  ]
}
